Here are results for 32 compounds from the supplement of paper PMC12462457.

The test relates to OVCAR8. The experiment in a line: cell count relative to DMSO vehicle (fold change); higher = more surviving senescent cells (less killing). To be noted: senescence inducer: cisplatin 10 µM 48 h, then 6 d recovery (CP senescent), exposure time 24 h.

Counter-ions that a name gives are not always drawn. ± gives the standard deviation of the averaged measurements. The list shows a part of the results. Repeats in this data set agree poorly, so a single value says little.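 Cell counts came from imaging DAPI-stained nuclei, excluding as dead any cells lacking phalloidin-stained cytoplasm. Counts per well were normalized to the median vehicle-well count on that plate, and the values were averaged over two replicate plates.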

In turn, `CC(=O)N1N=C(c2ccc(N)cc2)c2cc3c(cc2C[C@H]1C)OCO3` [Talampanel] had a cell count (compound dose 1 µM) of 0.904 ± 0.2 and a cell count (compound dose 5 µM) of 0.733 ± 0.021.
The matching figures for `COc1ccc2c(c1)/C(=C/c1cnc[nH]1)C(=O)N2`: 1.47 ± 0.35 and 1.5 ± 0.1.
In the same order, the values of `COc1ccc(C[C@H]2NC[C@H](O)[C@H]2OC(C)=O)cc1` [Anisomycin] are 0.616 ± 0.0057 and 0.395 ± 0.0099.
For `C[C@@H]1CC[C@H]2[C@@H](C)C(=O)O[C@@H]3O[C@@]4(C)CC[C@@H]1[C@]32OO4` [Artemisinin], the cell count by setting is: (compound dose 1 µM) 0.808 ± 0.13; (compound dose 5 µM) 0.571 ± 0.33.
In the same order, the values of `C=C(C)[C@H]1Cc2c(ccc3c2O[C@@H]2COc4cc(OC)c(OC)cc4[C@@H]2C3=O)O1` [Rotenone] are 0.808 ± 0.078 and 0.52 ± 0.064.
Turning to `COc1ccc([C@@]23Oc4cc(OC)cc(OC)c4[C@]2(O)[C@H](O)[C@H](C(N)=O)[C@H]3c2ccccc2)cc1` [Didesmethylrocaglamide], the cell count runs as follows: (compound dose 1 µM) 0.519 ± 0.052; (compound dose 5 µM) 0.465 ± 0.012.
In the same order, the values of `O=C1C=C2C(=CCOC2O)O1` (centres undefined) are 0.472 ± 0.27 and 0.681 ± 0.6.
Take `CNc1ccc2oc(C[C@H]3O[C@@]4(CC[C@H]3C)O[C@H]([C@H](C)C(=O)c3ccc[nH]3)[C@H](C)C[C@H]4C)nc2c1C(=O)O` [Calcimycin]: the cell count is, setting by setting: (compound dose 1 µM) 1.03 ± 0.03; (compound dose 5 µM) 0.845 ± 0.06.
Take `COc1ccc2c(c[n+](C)c3c4cc5c(cc4ccc23)OCO5)c1OC` [Chelerythrine (chloride)]: the cell count was 1.24 ± 0.014 (compound dose 1 µM) and 0.518 ± 0.083 (compound dose 5 µM).
In the same order, the values of `O=C1CCC[C@@H]2[C@H]3CCCN4CCC[C@H](CN12)[C@@H]34` [Sophoridine] are 0.416 ± 0.15 and 0.187 ± 0.16.
The matching figures for `COc1ccc(O)c(C(C)(C)C)c1.COc1ccc(O)cc1C(C)(C)C`: 1.3 ± 0.037 and 1.3 ± 0.079.
The matching figures for `O=C1c2ccccc2C(=O)c2c1cccc2-c1cnn(C2CCNCC2)c1` [PDK4-IN-1 (hydrochloride)]: 1.12 ± 0.016 and 0.928 ± 0.1.
In the case of `C[C@]12CC[C@H](O)C[C@@]1(O)CC[C@@H]1[C@@H]2CC[C@]2(C)[C@@H](c3ccc(=O)oc3)[C@@H](O)[C@H]3O[C@]132` [Desacetylcinobufotalin], the cell count reads like this: (compound dose 1 µM) 0.886 ± 0.0028; (compound dose 5 µM) 0.185 ± 0.16.
The matching figures for `CC(C)=CCC[C@H](C(=O)O)[C@H]1CC[C@]2(C)C3=C(CC[C@@]12C)[C@@]1(C)CCC(=O)C(C)(C)[C@H]1CC3` [β-Elemonic acid]: 0.96 ± 0.12 and 1.17 ± 0.11.
The matching figures for `C1=C2CCCN[C@H]2[C@@H]2C[C@H]1[C@H]1CCCCN1C2` [Aloperine]: 0.747 ± 0.13 and 0.776 ± 0.13.
With `COc1cc([C@@H]2c3cc4c(cc3[C@H](O)[C@H]3COC(=O)[C@@H]23)OCO4)cc(OC)c1OC` [Picropodophyllin], the cell count (compound dose 1 µM) was found to be 0.839 ± 0.2 and the cell count (compound dose 5 µM) was found to be 0.576 ± 0.16.
The matching figures for `O=Cc1cn(Cc2ccc(Cl)cc2)c2ccccc12` [Oncrasin-1]: 1.15 ± 0.086 and 0.983 ± 0.15.
With `CC1=C(O)C(=O)C=C2C1=CC=C1[C@@]2(C)CC[C@@]2(C)[C@@H]3C[C@](C)(C(=O)O)CC[C@]3(C)CC[C@]12C` [Tripterin], the cell count reads like this: (compound dose 1 µM) 0.239 ± 0.037; (compound dose 5 µM) 0.016 ± 0.0028.
The matching figures for `COc1cc(-n2c(=S)[nH]c3ccccc3c2=O)c(Cl)cc1Cl` [Mdivi-1]: 1.003 ± 0.0042 and 0.439 ± 0.3.
In the same order, the values of `CC(C)=CCC[C@]1(C)C=Cc2c(O)c3c(c(CC=C(C)C)c2O1)O[C@]12C(=C[C@@H]4C[C@H]1C(C)(C)O[C@@]2(C/C=C(/C)C(=O)O)C4=O)C3=O` [Gambogic Acid] are 0.148 ± 0.044 and 0.026 ± 0.0014.
For the compound `N#Cc1nn(-c2c(Cl)cc(C(F)(F)F)cc2Cl)c(N)c1[S+]([O-])C(F)(F)F` (centres undefined) [Fipronil], the cell count (compound dose 1 µM) was 0.868 ± 0.033 and the cell count (compound dose 5 µM) was determined as 1.02 ± 0.2.
For the compound `CC[C@@]1(O)C(=O)OCc2c1cc1n(c2=O)Cc2cc3ccccc3nc2-1` [Camptothecin], the cell count was 0.534 ± 0.018 (compound dose 1 µM) and 0.364 ± 0.076 (compound dose 5 µM).
The matching figures for `O=c1ccc2ccc3occc3c2o1` [Angelicin]: 1.14 ± 0.038 and 0.998 ± 0.013.
The matching figures for `C/C=C(/C)C(=O)O[C@H]1[C@@H]2[C@H](C)C(=O)O[C@@H]2C[C@@H](C)[C@@H]2C=CC(=O)[C@]21C` [Brevilin A]: 0.452 ± 0.024 and 0.215 ± 0.018.
The matching figures for `CC(C)[C@@H]1NC(=O)[C@H](C)OC(=O)[C@@H](C(C)C)NC(=O)[C@@H](C(C)C)OC(=O)[C@H](C(C)C)NC(=O)[C@H](C)OC(=O)[C@@H](C(C)C)NC(=O)[C@@H](C(C)C)OC(=O)[C@H](C(C)C)NC(=O)[C@H](C)OC(=O)[C@@H](C(C)C)NC(=O)[C@@H](C(C)C)OC1=O` [Valinomycin]: 0.978 ± 0.073 and 1.07 ± 0.027.
Take `O=C(Nc1ccncc1)C(=O)c1cn(Cc2ccc(Cl)cc2)c2ccccc12` [Indibulin]: the cell count is 0.862 ± 0.14 (compound dose 1 µM) and 0.936 ± 0.023 (compound dose 5 µM).
In the same order, the values of `C=C1[C@H](OC(=O)c2ccccc2)C[C@H]2[C@@H](/C=C(\C)C(=O)[C@@]3(OC(C)=O)C[C@H](C)[C@H](OC(=O)c4ccccc4)[C@@H]3[C@H]1OC(C)=O)C2(C)C` [Euphorbia Factor L2] are 1.13 ± 0.043 and 0.966 ± 0.11.
In the same order, the values of `CC(=O)OC(C)(C)/C=C/C(=O)[C@](C)(O)[C@H]1[C@H](O)C[C@@]2(C)[C@@H]3CC=C4[C@H](C[C@H](O)C(=O)C4(C)C)[C@]3(C)C(=O)C[C@]12C` [Cucurbitacin B] are 0 and 0.011 ± 0.0071.
In the same order, the values of `COc1ccccc1-n1c(/C=C/c2ccc(O)c(O)c2)nc2ccccc2c1=O` are 0.715 ± 0.17 and 0.862 ± 0.071.
For `C/C(=C\c1csc(C)n1)[C@@H]1C[C@@H]2O[C@]2(C)CCC[C@H](C)[C@H](O)[C@@H](C)C(=O)C(C)(C)[C@@H](O)CC(=O)O1` [Epothilone B], the cell count runs as follows: (compound dose 1 µM) 0.922 ± 0.052; (compound dose 5 µM) 1.03 ± 0.29.
On to `C=C[C@H]1CN2CC[C@H]1C[C@@H]2[C@@H](O)c1ccnc2ccccc12` [Cinchonine], for which the cell count reads like this: (compound dose 1 µM) 1.19 ± 0.013; (compound dose 5 µM) 0.976 ± 0.14.
In the same order, the values of `COCC1(CO)C(=O)C2CCN1CC2` (centres undefined) [Eprenetapopt] are 1.17 ± 0.21 and 1.15 ± 0.097.
